Measured values: the supplement of paper PMC10077471
Whole data set: some 1,900 compounds, median “excess over highest single agent (ExcessHSA) synergy score, 6x6 matrix” near -83, cut for the lowest 2% near -370. Some of the results follow.

tested on: NCI-H446; assay: excess over highest single agent (ExcessHSA) synergy score, 6x6 matrix; higher = less synergy (more negative = stronger synergy); details: 72 h; CellTiter-Glo viability

Structure (SMILES) | excess over highest single agent
COc1cc([C@@H]2c3cc4c(cc3[C@H](O)[C@H]3COC(=O)[C@@H]23)OCO4)cc(OC)c1OC + Cc1sc2c(c1C)C(c1ccc(Cl)cc1)=N[C@@H](CC(=O)OC(C)(C)C)c1nnc(C)n1-2 [NCGC00250412-19] | 31.7
COc1cc2c(cc1OC)CC(=O)N(CCCN(C)C[C@H]1Cc3cc(OC)c(OC)cc31)CC2 + Cc1sc2c(c1C)C(c1ccc(Cl)cc1)=N[C@@H](CC(=O)OC(C)(C)C)c1nnc(C)n1-2 [NCGC00250412-19] | -41.8
Clc1ccc(C(Cn2ccnc2)OCc2ccsc2Cl)c(Cl)c1 (stereo unspecified) + Cc1sc2c(c1C)C(c1ccc(Cl)cc1)=N[C@@H](CC(=O)OC(C)(C)C)c1nnc(C)n1-2 [NCGC00250412-19] | -4.07
COc1cc(C(=O)N2CCC(N3CCN(C)CC3)CC2)ccc1Nc1ncc2c(n1)N(C)c1ccccc1C(=O)N2C + Cc1sc2c(c1C)C(c1ccc(Cl)cc1)=N[C@@H](CC(=O)OC(C)(C)C)c1nnc(C)n1-2 [NCGC00250412-19] | 239
C[C@](N)(Cc1ccc(O)c(O)c1)C(=O)O + Cc1sc2c(c1C)C(c1ccc(Cl)cc1)=N[C@@H](CC(=O)OC(C)(C)C)c1nnc(C)n1-2 [NCGC00250412-19] | -50.9
COc1cc(NCc2ccc3nc(N)nc(N)c3c2C)cc(OC)c1OC + Cc1sc2c(c1C)C(c1ccc(Cl)cc1)=N[C@@H](CC(=O)OC(C)(C)C)c1nnc(C)n1-2 [NCGC00250412-19] | -213
CC(C)(OCc1nn(Cc2ccccc2)c2ccccc12)C(=O)O + Cc1sc2c(c1C)C(c1ccc(Cl)cc1)=N[C@@H](CC(=O)OC(C)(C)C)c1nnc(C)n1-2 [NCGC00250412-19] | 278
Cc1ccc(S(=O)(=O)N[C@@H](Cc2ccccc2)C(=O)CCl)cc1 + Cc1sc2c(c1C)C(c1ccc(Cl)cc1)=N[C@@H](CC(=O)OC(C)(C)C)c1nnc(C)n1-2 [NCGC00250412-19] | -221
CCn1c(C(=O)N(C2CC2)C2CC2)cc2c3c(ncn3C)c(Nc3cc(C)n(C)n3)nc21 + Cc1sc2c(c1C)C(c1ccc(Cl)cc1)=N[C@@H](CC(=O)OC(C)(C)C)c1nnc(C)n1-2 [NCGC00250412-19] | 76.1
Cc1cccc(-c2[nH]c(C(C)(C)C)nc2-c2ccc3c(c2)OCO3)n1 + Cc1sc2c(c1C)C(c1ccc(Cl)cc1)=N[C@@H](CC(=O)OC(C)(C)C)c1nnc(C)n1-2 [NCGC00250412-19] | -84.7
CC(C)(O)C(=O)Nc1ccc([N+](=O)[O-])c(C(F)(F)F)c1 + Cc1sc2c(c1C)C(c1ccc(Cl)cc1)=N[C@@H](CC(=O)OC(C)(C)C)c1nnc(C)n1-2 [NCGC00250412-19] | -139
CN1CC(=O)N2[C@H](c3ccc4c(c3)OCO4)c3[nH]c4ccccc4c3C[C@@H]2C1=O + Cc1sc2c(c1C)C(c1ccc(Cl)cc1)=N[C@@H](CC(=O)OC(C)(C)C)c1nnc(C)n1-2 [NCGC00250412-19] | -174
C1CCC(C(CC2CCCCN2)C2CCCCC2)CC1 (stereo unspecified) + Cc1sc2c(c1C)C(c1ccc(Cl)cc1)=N[C@@H](CC(=O)OC(C)(C)C)c1nnc(C)n1-2 [NCGC00250412-19] | -213
C1=C2CCCN[C@H]2[C@@H]2C[C@H]1[C@H]1CCCCN1C2 + Cc1sc2c(c1C)C(c1ccc(Cl)cc1)=N[C@@H](CC(=O)OC(C)(C)C)c1nnc(C)n1-2 [NCGC00250412-19] | -80.4
CCN(C(=O)c1c(O)c2c(Cl)cccc2n(C)c1=O)c1ccccc1 + Cc1sc2c(c1C)C(c1ccc(Cl)cc1)=N[C@@H](CC(=O)OC(C)(C)C)c1nnc(C)n1-2 [NCGC00250412-19] | -129
CCc1nc(N)nc(N)c1-c1ccc(Cl)cc1 + Cc1sc2c(c1C)C(c1ccc(Cl)cc1)=N[C@@H](CC(=O)OC(C)(C)C)c1nnc(C)n1-2 [NCGC00250412-19] | -92.5
CC(C)NCC(O)COc1ccc(CCOCC2CC2)cc1 (stereo unspecified) + Cc1sc2c(c1C)C(c1ccc(Cl)cc1)=N[C@@H](CC(=O)OC(C)(C)C)c1nnc(C)n1-2 [NCGC00250412-19] | -56.8
O=C(O)c1cn(C2CC2)c2cc(N3CCNCC3)c(F)cc2c1=O + Cc1sc2c(c1C)C(c1ccc(Cl)cc1)=N[C@@H](CC(=O)OC(C)(C)C)c1nnc(C)n1-2 [NCGC00250412-19] | -31.4
COc1cc2ncn(-c3cc(OCc4ccccc4C(F)(F)F)c(C(N)=O)s3)c2cc1OC + Cc1sc2c(c1C)C(c1ccc(Cl)cc1)=N[C@@H](CC(=O)OC(C)(C)C)c1nnc(C)n1-2 [NCGC00250412-19] | -59.3
CC(C)(N)c1ccc(-c2nc3ccccc3nc2-c2ccccc2)cc1 + Cc1sc2c(c1C)C(c1ccc(Cl)cc1)=N[C@@H](CC(=O)OC(C)(C)C)c1nnc(C)n1-2 [NCGC00250412-19] | -116
CN1c2cc(O)c(N=NC(N)=O)cc2CC1S(=O)(=O)O (stereo unspecified) + Cc1sc2c(c1C)C(c1ccc(Cl)cc1)=N[C@@H](CC(=O)OC(C)(C)C)c1nnc(C)n1-2 [NCGC00250412-19] | -280
C1COC(NC(C2CC2)C2CC2)=N1 + Cc1sc2c(c1C)C(c1ccc(Cl)cc1)=N[C@@H](CC(=O)OC(C)(C)C)c1nnc(C)n1-2 [NCGC00250412-19] | -171
COc1cc(OC2CCN(C)CC2)ccc1Nc1ncc2c(n1)n(C1CCCC1)c(=O)n2C + Cc1sc2c(c1C)C(c1ccc(Cl)cc1)=N[C@@H](CC(=O)OC(C)(C)C)c1nnc(C)n1-2 [NCGC00250412-19] | 32.4
CN1CCN(c2ncc(-c3cc(Cl)cc(Cl)c3Cl)c(N)n2)CC1 + Cc1sc2c(c1C)C(c1ccc(Cl)cc1)=N[C@@H](CC(=O)OC(C)(C)C)c1nnc(C)n1-2 [NCGC00250412-19] | -219
C#CCN[C@@H]1CCc2ccccc21 + Cc1sc2c(c1C)C(c1ccc(Cl)cc1)=N[C@@H](CC(=O)OC(C)(C)C)c1nnc(C)n1-2 [NCGC00250412-19] | 68
O=C(Nc1ccc(Oc2ccnc3[nH]ccc23)c(F)c1)c1cccn(-c2ccc(F)cc2)c1=O + Cc1sc2c(c1C)C(c1ccc(Cl)cc1)=N[C@@H](CC(=O)OC(C)(C)C)c1nnc(C)n1-2 [NCGC00250412-19] | -78.2

Quoted at random: two entries already listed, in no set order.
Structure (SMILES) | excess over highest single agent
C1CCC(C(CC2CCCCN2)C2CCCCC2)CC1 (stereo unspecified) + Cc1sc2c(c1C)C(c1ccc(Cl)cc1)=N[C@@H](CC(=O)OC(C)(C)C)c1nnc(C)n1-2 [NCGC00250412-19] | -213
CC(C)(O)C(=O)Nc1ccc([N+](=O)[O-])c(C(F)(F)F)c1 + Cc1sc2c(c1C)C(c1ccc(Cl)cc1)=N[C@@H](CC(=O)OC(C)(C)C)c1nnc(C)n1-2 [NCGC00250412-19] | -139
